Measurements taken from the supplement of paper PMC12067093, “Discovery and optimisation of a covalent ligand for TRIM25 and its application to targeted protein ubiquitination” (Chemical Science, 2025).
Some of the results follow.

By UniProt entry, the sequences of proteins in these tests, tags left out. Where a name states a change or a piece, a line headed by the entry shows the natural chain unless it says otherwise.
UniProt O75348, whole entry, looked up: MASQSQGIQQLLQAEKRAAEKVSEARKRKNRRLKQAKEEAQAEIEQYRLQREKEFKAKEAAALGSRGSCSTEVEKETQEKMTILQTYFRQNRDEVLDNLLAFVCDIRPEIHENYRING
UniProt Q5TC12: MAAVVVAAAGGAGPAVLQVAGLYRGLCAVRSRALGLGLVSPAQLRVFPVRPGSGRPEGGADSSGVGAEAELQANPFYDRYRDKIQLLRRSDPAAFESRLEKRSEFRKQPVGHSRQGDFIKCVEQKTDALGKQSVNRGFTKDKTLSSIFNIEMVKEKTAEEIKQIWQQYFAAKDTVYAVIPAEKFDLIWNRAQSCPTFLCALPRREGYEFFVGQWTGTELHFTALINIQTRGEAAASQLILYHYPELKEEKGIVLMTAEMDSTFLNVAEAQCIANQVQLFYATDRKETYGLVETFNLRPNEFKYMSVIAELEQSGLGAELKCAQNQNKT
UniProt Q13315: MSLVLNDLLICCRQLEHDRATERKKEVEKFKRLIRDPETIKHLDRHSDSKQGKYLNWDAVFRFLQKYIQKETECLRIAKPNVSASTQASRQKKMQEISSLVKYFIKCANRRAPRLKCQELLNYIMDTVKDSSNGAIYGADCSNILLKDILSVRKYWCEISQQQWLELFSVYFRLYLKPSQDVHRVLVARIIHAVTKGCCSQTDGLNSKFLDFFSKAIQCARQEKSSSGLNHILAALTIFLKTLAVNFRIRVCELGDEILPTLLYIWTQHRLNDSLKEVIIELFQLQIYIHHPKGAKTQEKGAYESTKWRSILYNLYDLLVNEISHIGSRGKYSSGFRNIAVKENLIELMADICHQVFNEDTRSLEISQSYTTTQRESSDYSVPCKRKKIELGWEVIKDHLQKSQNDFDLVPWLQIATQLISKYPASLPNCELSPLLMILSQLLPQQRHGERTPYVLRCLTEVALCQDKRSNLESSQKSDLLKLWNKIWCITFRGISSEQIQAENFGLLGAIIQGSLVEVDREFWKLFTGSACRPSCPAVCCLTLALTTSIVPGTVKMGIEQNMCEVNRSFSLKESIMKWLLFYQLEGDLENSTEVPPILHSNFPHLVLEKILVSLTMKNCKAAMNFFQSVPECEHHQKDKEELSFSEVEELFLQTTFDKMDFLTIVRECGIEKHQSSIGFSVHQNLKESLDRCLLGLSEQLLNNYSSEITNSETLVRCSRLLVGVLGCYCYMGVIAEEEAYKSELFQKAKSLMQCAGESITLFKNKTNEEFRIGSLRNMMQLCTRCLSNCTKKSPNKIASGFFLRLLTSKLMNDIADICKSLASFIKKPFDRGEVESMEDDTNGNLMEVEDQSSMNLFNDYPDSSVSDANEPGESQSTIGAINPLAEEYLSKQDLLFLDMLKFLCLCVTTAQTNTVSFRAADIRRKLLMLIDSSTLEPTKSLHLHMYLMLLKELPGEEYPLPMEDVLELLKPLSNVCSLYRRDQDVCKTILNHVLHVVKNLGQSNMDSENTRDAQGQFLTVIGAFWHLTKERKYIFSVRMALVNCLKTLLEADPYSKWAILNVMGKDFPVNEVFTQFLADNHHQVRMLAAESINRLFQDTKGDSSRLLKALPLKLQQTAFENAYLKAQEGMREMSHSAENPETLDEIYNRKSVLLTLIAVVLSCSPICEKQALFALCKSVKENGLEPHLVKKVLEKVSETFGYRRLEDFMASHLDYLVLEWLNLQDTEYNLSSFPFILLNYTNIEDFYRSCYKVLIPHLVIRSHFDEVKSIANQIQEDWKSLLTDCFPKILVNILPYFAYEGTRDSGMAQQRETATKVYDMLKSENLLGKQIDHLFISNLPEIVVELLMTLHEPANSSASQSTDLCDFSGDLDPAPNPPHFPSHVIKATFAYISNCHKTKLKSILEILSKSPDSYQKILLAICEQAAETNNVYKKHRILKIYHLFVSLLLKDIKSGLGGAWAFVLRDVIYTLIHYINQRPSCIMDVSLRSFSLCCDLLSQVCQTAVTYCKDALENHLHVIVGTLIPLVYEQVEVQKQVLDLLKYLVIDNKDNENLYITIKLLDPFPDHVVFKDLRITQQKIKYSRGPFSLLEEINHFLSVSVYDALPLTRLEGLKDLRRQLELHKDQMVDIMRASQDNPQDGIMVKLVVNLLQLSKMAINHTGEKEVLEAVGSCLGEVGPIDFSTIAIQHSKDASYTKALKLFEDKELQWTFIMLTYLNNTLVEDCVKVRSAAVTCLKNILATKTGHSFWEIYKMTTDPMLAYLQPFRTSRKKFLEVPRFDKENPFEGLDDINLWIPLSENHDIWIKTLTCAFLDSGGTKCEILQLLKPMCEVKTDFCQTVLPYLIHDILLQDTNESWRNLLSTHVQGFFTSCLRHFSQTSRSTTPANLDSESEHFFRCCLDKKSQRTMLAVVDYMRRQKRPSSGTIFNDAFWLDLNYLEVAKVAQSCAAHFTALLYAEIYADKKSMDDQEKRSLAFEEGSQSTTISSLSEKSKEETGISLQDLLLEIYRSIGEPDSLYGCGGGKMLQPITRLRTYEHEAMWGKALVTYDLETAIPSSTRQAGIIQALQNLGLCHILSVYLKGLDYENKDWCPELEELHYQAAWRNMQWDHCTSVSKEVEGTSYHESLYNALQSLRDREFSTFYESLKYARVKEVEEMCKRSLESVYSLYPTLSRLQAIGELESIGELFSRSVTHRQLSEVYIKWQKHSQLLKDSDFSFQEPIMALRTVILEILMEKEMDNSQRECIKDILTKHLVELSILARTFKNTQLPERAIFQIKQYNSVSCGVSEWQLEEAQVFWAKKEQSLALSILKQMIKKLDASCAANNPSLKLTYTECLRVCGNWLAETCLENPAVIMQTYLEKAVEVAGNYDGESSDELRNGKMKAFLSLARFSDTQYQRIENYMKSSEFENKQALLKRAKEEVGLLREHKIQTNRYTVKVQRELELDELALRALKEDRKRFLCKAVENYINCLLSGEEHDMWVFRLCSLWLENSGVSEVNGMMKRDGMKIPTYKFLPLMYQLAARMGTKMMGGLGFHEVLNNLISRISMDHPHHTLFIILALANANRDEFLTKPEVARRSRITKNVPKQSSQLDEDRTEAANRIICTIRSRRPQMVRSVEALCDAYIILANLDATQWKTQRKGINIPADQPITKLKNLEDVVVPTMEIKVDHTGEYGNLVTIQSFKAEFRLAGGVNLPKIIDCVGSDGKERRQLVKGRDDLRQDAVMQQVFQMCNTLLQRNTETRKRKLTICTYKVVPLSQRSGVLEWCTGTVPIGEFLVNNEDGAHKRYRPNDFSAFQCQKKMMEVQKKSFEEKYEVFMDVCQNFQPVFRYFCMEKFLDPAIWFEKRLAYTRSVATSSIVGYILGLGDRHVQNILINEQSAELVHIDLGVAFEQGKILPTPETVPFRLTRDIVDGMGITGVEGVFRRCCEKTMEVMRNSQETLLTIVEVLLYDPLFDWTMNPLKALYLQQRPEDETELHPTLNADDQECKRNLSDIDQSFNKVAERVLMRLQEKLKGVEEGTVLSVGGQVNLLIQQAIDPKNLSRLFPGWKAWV
UniProt Q6DD88: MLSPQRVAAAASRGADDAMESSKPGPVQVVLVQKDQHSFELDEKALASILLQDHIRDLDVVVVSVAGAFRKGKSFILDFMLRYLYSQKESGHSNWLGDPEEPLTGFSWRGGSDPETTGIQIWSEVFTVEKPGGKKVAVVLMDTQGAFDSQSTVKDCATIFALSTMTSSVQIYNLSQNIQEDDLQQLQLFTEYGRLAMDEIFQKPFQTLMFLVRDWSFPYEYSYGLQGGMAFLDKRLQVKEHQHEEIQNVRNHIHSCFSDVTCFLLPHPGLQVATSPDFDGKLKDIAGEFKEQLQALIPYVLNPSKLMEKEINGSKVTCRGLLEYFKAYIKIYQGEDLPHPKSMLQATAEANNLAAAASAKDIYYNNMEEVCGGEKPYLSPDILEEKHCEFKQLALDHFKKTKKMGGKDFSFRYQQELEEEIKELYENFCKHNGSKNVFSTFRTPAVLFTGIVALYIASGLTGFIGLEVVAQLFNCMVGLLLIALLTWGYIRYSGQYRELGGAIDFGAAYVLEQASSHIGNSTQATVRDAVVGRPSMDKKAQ
UniProt P20020: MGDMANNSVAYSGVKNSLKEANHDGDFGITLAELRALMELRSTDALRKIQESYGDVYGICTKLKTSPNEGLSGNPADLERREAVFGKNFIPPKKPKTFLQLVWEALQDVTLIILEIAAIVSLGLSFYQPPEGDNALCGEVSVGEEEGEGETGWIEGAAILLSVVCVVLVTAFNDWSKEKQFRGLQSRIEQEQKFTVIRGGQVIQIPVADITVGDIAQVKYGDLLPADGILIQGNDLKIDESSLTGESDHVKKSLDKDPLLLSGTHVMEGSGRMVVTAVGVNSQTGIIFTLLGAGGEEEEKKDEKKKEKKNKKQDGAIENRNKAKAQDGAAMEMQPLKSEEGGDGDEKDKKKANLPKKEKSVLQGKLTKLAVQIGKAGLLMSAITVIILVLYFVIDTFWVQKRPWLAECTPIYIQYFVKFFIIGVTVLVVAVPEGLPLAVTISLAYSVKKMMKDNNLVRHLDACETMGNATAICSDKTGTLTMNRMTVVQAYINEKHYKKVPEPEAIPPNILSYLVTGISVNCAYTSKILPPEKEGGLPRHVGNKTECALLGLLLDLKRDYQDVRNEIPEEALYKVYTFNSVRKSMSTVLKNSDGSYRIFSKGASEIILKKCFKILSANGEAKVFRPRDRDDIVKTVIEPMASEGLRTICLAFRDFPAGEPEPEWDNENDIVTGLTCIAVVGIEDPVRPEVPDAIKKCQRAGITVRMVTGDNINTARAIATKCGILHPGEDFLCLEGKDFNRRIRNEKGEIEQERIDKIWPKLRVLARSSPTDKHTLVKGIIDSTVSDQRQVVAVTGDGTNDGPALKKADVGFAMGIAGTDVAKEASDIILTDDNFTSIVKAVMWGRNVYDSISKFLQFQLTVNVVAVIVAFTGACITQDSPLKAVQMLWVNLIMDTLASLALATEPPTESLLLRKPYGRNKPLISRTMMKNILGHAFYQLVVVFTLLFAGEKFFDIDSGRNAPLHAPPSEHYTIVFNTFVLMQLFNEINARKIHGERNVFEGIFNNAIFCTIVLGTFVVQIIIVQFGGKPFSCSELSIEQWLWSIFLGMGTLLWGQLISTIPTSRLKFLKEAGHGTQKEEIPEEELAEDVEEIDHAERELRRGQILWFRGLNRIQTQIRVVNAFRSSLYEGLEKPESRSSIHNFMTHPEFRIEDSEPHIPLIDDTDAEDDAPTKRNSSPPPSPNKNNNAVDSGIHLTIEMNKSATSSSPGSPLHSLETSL
UniProt Q9ULH1: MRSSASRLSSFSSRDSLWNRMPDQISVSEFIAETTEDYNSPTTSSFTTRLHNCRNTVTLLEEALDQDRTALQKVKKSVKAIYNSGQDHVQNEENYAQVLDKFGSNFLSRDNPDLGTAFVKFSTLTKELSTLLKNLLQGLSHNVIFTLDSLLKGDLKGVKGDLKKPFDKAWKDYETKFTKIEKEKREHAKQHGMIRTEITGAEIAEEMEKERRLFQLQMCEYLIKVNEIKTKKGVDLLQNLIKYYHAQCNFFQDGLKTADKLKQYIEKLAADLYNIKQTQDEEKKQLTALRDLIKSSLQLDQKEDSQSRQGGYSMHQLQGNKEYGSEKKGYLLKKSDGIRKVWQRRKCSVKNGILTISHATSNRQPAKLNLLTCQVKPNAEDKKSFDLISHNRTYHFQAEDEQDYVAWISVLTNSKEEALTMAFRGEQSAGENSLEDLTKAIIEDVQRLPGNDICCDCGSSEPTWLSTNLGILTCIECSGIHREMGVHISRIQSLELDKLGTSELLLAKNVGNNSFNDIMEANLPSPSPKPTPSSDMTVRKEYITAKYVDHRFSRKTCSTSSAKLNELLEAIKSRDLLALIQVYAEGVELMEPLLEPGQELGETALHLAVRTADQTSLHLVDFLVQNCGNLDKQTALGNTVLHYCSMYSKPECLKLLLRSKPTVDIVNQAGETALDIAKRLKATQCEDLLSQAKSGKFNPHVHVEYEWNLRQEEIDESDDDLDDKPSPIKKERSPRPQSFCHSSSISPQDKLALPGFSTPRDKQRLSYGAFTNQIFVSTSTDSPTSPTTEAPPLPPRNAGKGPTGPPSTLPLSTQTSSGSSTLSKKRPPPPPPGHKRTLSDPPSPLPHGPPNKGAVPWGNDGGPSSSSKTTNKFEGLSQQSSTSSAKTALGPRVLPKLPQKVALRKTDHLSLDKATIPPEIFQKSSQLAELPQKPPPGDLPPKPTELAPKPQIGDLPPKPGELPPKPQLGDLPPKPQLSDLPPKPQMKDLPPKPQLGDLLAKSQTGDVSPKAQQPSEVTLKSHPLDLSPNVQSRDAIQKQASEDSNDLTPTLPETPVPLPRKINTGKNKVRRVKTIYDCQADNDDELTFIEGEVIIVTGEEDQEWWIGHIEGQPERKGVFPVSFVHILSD
UniProt Q99766: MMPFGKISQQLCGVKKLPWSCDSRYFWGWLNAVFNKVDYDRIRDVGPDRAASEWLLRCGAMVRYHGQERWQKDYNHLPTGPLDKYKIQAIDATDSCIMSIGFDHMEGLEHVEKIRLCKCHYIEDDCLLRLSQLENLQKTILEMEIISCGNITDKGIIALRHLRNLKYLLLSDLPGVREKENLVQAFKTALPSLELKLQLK

Compound: CC1Cc2ccccc2N1C(=O)C1CCCN(C1)C(=O)CCl (mixture of isomers) [TRIM25 ligand 11 (diastereomer mixture)]
Assay: probe-labelled cysteine peptide fold change vs DMSO (competition) (log2 fold change); higher = less target engagement (more negative = stronger competition)
Conditions: THP-1, incubation time: 4 h
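Also: competitive chemoproteomic profiling in live THP-1 cells with an iodoacetamide desthiobiotin (IA-DTB) probe, comparing probe-labelled peptide intensities in compound-treated cells against DMSO-treated controls.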

| Target | probe-labelled cysteine peptide fold change (10 µM) | probe-labelled cysteine peptide fold change (50 µM) |
| --- | --- | --- |
| ATG9A_Q7Z3C6_331_CWSLYGR (UniProt Q7Z3C6) | 0.00962 | 0.0279 |
| ASCC3_Q8N3C0_1874_CLPIESNPHSFDSPHTK (UniProt Q8N3C0) | 0.0413 | -0.113 |
| ATP6V1G1_O75348_104_QNRDEVLDNLLAFVCDIRPEIHENYR (UniProt O75348) | -0.129 | -0.166 |
| ATPAF1_Q5TC12_321_CAQNQNKT (UniProt Q5TC12) | -0.189 | -0.217 |
| ATM_Q13315_12_SLVLNDLLICCR (UniProt Q13315) | -0.475 | -0.182 |
| ATM_Q13315_2770_SGVLEWCTGTVPIGEFLVNNEDGAHKR (UniProt Q13315) | -0.159 | 0.0356 |
| ATL3_Q6DD88_371_DIYYNNMEEVCGGEK (UniProt Q6DD88) | 0.081 | -0.0128 |
| ATP2B1_P20020_473_HLDACETMGNATAICSDK (UniProt P20020) | 0.0473 | -0.103 |
| ASCC3_Q8N3C0_2101_GKPESCAVTPR (UniProt Q8N3C0) | 0.0662 | 0.0471 |
| ATP6V0D1_P61421_244_LFPHCGR (UniProt P61421) | 0.0933 | 0.0427 |
| ASMTL_O95671_305_GLLTACK (UniProt O95671) | -0.0323 | -0.0143 |
| ATP2B1_P20020_463+473_HLDACETMGNATAICSDK (UniProt P20020) | 0.274 | -0.133 |
| ASXL2_Q76L83_1225_ETLSTSDCLASK (UniProt Q76L83) | -0.0078 | -0.1 |
| ASAP1_Q9ULH1_373_LNLLTCQVKPNAEDKK (UniProt Q9ULH1) | -0.0328 | -0.0217 |
| ATM_Q13315_2323_KLDASCAANNPSLK (UniProt Q13315) | -0.0238 | -0.0299 |
| ATPAF1_Q5TC12_321_CAQNQNK (UniProt Q5TC12) | 0.0122 | -0.11 |
| ATP2A2_P16615_669_DACLNAR (UniProt P16615) | -0.0508 | -0.0397 |
| ATP2A2_P16615_875_VSFYQLSHFLQCK (UniProt P16615) | 0.0301 | 0.00168 |
| ASMTL_O95671_274_AEAGEAGQATAEAECHR (UniProt O95671) | -0.103 | -0.158 |
| ATM_Q13315_790_CLSNCTK (UniProt Q13315) | 0.0195 | 0.0568 |
| ATP8B4_Q8TF62_734_NFSNGHVVCEK (UniProt Q8TF62) | 0.0482 | -0.165 |

Seven entries from above, tab-delimited:
Target	probe-labelled cysteine peptide fold change (10 µM)	probe-labelled cysteine peptide fold change (50 µM)
ASCC3_Q8N3C0_1874_CLPIESNPHSFDSPHTK (UniProt Q8N3C0)	0.0413	-0.113
ATP6V1G1_O75348_104_QNRDEVLDNLLAFVCDIRPEIHENYR (UniProt O75348)	-0.129	-0.166
ATPAF1_Q5TC12_321_CAQNQNKT (UniProt Q5TC12)	-0.189	-0.217
ATM_Q13315_12_SLVLNDLLICCR (UniProt Q13315)	-0.475	-0.182
ATM_Q13315_2770_SGVLEWCTGTVPIGEFLVNNEDGAHKR (UniProt Q13315)	-0.159	0.0356
ATL3_Q6DD88_371_DIYYNNMEEVCGGEK (UniProt Q6DD88)	0.081	-0.0128
ATP2B1_P20020_473_HLDACETMGNATAICSDK (UniProt P20020)	0.0473	-0.103

(cont.)

| Target | probe-labelled cysteine peptide fold change (10 µM) | probe-labelled cysteine peptide fold change (50 µM) |
| --- | --- | --- |
| ATG7_O95352_368_CLLLGAGTLGCNVAR (UniProt O95352) | 0.0347 | -0.0203 |
| ATP6V0D1_P61421_39_AGVLSQADYLNLVQCETLEDLK (UniProt P61421) | -0.0789 | 0.178 |
| ATG7_O95352_406_QPLYEFEDCLGGGKPK (UniProt O95352) | -0.0601 | -0.0833 |
| ASB1_Q9Y576_36_EQFCDHPLEHCEDTR (UniProt Q9Y576) | 0.123 | -0.0882 |
| ATP5F1C_P36542_103_GLCGAIHSSIAK (UniProt P36542) | 0.234 | -0.228 |
| ATM_Q13315_755_SLMQCAGESITLFK (UniProt Q13315) | 0.103 | 0.136 |
| ATF2_P15336_418_DCPVTAMQK (UniProt P15336) | -0.211 | -0.349 |
| ATP13A1_Q9HD20_410_ATTGLKPVDSGCVAYVLR (UniProt Q9HD20) | 0.0177 | 0.055 |
| ARRB1_P49407_125_KLGEHAYPFTFEIPPNLPCSVTLQPGPEDTGK (UniProt P49407) | -0.00444 | -0.04 |
| ATG2A_Q2TAZ0_811_CSLEVILPSVHIFLPSK (UniProt Q2TAZ0) | 0.0246 | 0.0488 |
| ASAP1_Q9ULH1_373_LNLLTCQVKPNAEDK (UniProt Q9ULH1) | 0.131 | 0.148 |
| ATIC_P31939_363_NGNYCVLQMDQSYKPDENEVR (UniProt P31939) | -0.026 | 0.0213 |
| ATP5S_Q99766_111_IQAIDATDSCIMSIGFDHMEGLEHVEK (UniProt Q99766) | -0.0321 | -0.172 |
| ATG16L1_Q676U5_533_CGSDWTR (UniProt Q676U5) | 0.0178 | 0.0689 |
| ATP6V1G1_O75348_69_GSCSTEVEK (UniProt O75348) | -0.239 | -0.244 |
| ATP6V0A2_Q9Y487_244_ICDCYHCHVYPYPNTAEER (UniProt Q9Y487) | 0.131 | 0.198 |
| ATP6V0A1_Q93050_310_AIYHTLNLCNIDVTQK (UniProt Q93050) | 0.176 | 0.149 |
| ATP2C1_P98194_411_IVEAGCVCNDAVIR (UniProt P98194) | -0.000286 | 0.297 |
| ASPSCR1_Q9BZE9_325_ERPVDREPVDREPVVCHPDLEER (UniProt Q9BZE9) | -0.175 | -0.252 |
| ATP2B1_P20020_547_TECALLGLLLDLKR (UniProt P20020) | -0.0804 | -0.286 |
| ATG2A_Q2TAZ0_698+715_SELSSGPGPPVPTHLELTCSDLHGIYEDGGKPPVPCLR (UniProt Q2TAZ0) | 0.0924 | -0.0139 |
